# In patent US9446146B2, “Methods and agents for improving targeting of CD138 expressing tumor cells” (BIOTEST AG, priority 2007, dated 2016):
# For at least one compound, name, drawing or mass did not settle the structure.
# Test system: OPM1 cells
# Experiment: [3H]-thymidine uptake of MM cells with IL-6, IGF-1 or BMSC co-culture
# Assay type: cell-based
# Settings: 250, 500, 1000 nM, 72 h, co-culture with BMSCs
smiles,measurement,value
C[C@@H]1C[C@H]2[C@@H]3CCC4=CC(=O)C=C[C@]4(C)[C@@]3(F)[C@@H](O)C[C@]2(C)[C@@]1(O)C(=O)CO [Dexamethasone],overcoming BMSC triggered protective effect,not able to overcome the BMSC triggered protective effect
